Data published in patent US20120053225A1.
No constants are given. Whether binding was seen depends on the method and setting. For some assays here: In cells and extracts the contact can be indirect. Some binding calls cover weakened binding; strength is not graded here. Each block holds one substance with its values, some of them ahead of it.

Protein sequences, listed by entry. Tags and fused reporters are not part of them. Lines headed by an entry give the natural chain unless they say otherwise; changes in a name come on top. Chains listed by the source or under a name are the forms on record and can include a tag or linker.
UniProt P10275: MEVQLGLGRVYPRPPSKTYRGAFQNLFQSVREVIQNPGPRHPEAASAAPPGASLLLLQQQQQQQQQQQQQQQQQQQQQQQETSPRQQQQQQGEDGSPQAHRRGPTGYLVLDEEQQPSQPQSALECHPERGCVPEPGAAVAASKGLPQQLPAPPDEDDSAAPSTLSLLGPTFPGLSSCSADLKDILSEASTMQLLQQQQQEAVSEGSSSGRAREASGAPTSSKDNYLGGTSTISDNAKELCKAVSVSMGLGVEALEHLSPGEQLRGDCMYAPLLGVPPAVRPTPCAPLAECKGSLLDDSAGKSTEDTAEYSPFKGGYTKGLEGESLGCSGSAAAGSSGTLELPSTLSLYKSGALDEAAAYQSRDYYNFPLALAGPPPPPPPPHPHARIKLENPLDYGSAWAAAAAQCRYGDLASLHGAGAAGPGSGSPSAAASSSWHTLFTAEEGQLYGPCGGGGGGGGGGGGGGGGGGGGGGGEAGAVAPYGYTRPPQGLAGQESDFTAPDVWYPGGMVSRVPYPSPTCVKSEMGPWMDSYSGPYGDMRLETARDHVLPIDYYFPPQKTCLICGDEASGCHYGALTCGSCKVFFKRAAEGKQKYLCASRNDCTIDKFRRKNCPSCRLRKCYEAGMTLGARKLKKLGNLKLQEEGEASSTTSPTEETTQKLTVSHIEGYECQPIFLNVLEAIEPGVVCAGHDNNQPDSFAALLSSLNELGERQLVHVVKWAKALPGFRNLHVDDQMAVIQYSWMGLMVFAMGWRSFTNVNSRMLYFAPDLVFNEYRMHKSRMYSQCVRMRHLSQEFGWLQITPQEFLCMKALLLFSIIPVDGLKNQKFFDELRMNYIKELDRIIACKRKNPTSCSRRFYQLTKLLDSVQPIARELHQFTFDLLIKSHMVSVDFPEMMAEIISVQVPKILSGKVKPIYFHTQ
UniProt P31749: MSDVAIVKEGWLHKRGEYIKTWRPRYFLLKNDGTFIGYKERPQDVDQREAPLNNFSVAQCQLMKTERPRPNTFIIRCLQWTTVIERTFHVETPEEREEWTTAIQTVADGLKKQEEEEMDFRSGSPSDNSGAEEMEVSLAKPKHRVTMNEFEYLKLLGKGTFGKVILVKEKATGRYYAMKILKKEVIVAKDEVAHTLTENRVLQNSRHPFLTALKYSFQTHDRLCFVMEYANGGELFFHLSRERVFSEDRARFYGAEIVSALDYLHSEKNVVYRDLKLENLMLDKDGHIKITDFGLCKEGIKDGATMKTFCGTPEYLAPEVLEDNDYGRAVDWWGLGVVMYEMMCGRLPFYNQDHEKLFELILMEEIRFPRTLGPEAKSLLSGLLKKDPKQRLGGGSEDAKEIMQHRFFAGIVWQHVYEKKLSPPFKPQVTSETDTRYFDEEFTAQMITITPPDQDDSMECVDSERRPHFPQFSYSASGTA
UniProt Q07912: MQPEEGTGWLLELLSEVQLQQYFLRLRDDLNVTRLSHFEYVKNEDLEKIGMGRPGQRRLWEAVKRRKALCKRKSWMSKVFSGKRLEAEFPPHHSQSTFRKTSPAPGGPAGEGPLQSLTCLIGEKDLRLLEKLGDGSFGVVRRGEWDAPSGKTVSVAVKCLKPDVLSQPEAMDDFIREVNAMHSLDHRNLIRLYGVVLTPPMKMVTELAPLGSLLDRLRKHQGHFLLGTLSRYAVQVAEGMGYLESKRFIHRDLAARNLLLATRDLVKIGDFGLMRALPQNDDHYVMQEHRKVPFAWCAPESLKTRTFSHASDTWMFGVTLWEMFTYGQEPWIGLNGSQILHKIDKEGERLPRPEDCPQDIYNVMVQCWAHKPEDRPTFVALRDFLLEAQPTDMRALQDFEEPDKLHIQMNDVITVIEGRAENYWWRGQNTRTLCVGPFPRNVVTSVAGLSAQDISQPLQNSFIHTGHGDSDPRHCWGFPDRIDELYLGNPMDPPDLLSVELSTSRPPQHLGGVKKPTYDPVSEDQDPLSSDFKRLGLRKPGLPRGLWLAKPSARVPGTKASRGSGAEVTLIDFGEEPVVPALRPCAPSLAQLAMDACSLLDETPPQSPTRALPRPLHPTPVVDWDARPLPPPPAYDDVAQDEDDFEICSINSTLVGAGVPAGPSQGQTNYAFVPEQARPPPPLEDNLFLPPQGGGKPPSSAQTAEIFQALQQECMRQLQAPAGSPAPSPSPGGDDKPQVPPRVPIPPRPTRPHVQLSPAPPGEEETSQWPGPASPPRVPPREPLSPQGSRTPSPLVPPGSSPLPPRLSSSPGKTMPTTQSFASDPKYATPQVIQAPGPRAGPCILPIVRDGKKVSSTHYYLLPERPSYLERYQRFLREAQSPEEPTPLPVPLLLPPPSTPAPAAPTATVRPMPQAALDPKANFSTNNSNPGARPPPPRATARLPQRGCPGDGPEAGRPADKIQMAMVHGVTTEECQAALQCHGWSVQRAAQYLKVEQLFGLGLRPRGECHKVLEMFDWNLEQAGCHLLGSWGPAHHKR
activated Ack1 (caAck, L487F mutant) (Q07912, form named): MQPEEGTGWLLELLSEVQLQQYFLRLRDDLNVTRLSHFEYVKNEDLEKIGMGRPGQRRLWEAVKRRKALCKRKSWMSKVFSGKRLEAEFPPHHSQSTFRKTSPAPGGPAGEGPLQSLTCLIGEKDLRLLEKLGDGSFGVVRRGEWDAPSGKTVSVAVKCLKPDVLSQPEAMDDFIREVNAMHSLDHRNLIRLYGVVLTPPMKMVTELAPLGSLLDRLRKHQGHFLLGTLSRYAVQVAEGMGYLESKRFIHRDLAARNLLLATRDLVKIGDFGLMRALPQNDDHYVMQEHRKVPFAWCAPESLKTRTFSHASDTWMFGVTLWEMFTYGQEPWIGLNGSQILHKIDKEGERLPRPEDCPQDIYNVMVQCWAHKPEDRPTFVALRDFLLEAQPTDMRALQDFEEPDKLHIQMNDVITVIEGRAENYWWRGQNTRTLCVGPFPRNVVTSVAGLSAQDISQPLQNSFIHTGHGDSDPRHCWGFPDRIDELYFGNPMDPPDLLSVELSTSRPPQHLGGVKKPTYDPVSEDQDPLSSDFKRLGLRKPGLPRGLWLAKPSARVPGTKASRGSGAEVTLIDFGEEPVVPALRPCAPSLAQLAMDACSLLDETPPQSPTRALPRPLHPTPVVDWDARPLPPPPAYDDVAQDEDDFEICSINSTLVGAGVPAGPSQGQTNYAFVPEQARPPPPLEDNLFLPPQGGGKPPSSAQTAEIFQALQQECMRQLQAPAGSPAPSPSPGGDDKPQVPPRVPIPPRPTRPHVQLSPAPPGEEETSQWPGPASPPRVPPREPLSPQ
UniProt O54967: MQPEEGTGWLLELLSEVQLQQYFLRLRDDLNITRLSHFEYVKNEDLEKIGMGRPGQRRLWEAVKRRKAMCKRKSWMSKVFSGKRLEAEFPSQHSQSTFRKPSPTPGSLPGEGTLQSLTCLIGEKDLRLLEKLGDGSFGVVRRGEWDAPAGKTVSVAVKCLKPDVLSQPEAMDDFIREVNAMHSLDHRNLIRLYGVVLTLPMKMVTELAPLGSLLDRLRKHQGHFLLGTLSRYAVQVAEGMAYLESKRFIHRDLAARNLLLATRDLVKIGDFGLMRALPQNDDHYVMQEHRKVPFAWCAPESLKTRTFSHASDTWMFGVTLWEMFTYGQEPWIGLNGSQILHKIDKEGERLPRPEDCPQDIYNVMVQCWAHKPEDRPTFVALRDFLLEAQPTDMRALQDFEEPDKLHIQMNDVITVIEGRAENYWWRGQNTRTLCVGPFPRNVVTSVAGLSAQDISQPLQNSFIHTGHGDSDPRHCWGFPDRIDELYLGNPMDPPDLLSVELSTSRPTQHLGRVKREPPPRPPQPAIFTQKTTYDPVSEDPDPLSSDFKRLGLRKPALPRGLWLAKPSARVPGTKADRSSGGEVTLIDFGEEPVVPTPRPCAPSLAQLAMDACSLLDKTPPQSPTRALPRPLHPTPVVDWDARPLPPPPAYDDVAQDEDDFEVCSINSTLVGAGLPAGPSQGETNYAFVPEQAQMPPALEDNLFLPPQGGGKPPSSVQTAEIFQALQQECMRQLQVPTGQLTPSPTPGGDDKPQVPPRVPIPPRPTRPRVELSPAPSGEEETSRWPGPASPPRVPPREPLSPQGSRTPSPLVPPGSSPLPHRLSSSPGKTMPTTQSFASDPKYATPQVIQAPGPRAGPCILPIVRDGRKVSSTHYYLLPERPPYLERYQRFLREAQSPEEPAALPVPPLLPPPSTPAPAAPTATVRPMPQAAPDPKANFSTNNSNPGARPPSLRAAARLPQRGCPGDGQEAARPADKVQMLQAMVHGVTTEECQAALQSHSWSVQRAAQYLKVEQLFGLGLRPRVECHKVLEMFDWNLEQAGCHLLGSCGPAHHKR

Legend:
[1] = biological target: FLAG-tagged androgen receptor (UniProt P10275); test: pull-down of purified proteins on GST-Ack1 glutathione beads, immunoblot
[2] = biological target: HA-tagged AKT (wild type) (UniProt P31749); test: as above
[3] = biological target: HA-tagged AKT (wild type) (UniProt P31749); test: GST pull-down with purified AKT
[4] = biological target: endogenous AKT of 293T cells (human) (UniProt P31749); test: co-IP with HA antibodies from 293T cells, immunoblot with AKT antibodies
[5] = biological target: HA-tagged AKT (wild type) (UniProt P31749); test: IP of HA-tagged AKT on HA-beads from HEK293T cells co-expressing caAck, Coomassie-stained gel
[6] = biological target: HA-tagged AKT (wild type) (UniProt P31749); test: co-IP with Myc antibodies from HEK293 cells, immunoblot with HA antibodies
[7] = biological target: HA-tagged AKT (wild type) (UniProt P31749); test: co-IP with anti-Ack1 from MEF1&2KO cells expressing HA-tagged AKT (FIG. 16)
[8] = biological target: HA-tagged AKT (wild type) (UniProt P31749); test: in vitro binding assay with purified proteins, IP and immunoblot

binding [1]: binds | binding [2]: binds | binding [3]: binds
Substance: GST-Ack1 (kinase, SH3 and CRIB domain), expressed in E. coli (from UniProt Q07912 110-476) (enzyme)

binding [4]: binds
Substance: HA-tagged Ack1 E346K point mutant (from UniProt Q07912 1-1038) (enzyme)

binding [5]: binds | binding [6]: binds
Substance: activated Ack1 (caAck, L487F mutant) (from UniProt Q07912 1-787) (enzyme)

binding [7]: binds
Substance: endogenous Ack1 of mouse embryo fibroblasts (from UniProt O54967 1-1055) (enzyme)

binding [8]: binds
Substance: purified tagged Ack1 expressed in HEK293T cells (from UniProt Q07912 1-1038) (enzyme)
